# The list shows a part of the results.
# Chains of the proteins cited; added tags and fusions are not shown. Lines headed by an entry give the natural chain unless they say otherwise; changes in a name come on top.
# UniProt Q9UJJ7: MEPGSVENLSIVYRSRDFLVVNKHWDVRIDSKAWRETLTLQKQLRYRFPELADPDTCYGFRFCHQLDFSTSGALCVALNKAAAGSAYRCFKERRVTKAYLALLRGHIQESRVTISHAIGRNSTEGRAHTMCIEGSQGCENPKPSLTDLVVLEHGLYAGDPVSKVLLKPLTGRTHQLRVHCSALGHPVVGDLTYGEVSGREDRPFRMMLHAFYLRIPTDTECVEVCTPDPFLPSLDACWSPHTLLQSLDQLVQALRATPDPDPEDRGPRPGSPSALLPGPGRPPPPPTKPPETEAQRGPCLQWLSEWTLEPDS
# UniProt P21817: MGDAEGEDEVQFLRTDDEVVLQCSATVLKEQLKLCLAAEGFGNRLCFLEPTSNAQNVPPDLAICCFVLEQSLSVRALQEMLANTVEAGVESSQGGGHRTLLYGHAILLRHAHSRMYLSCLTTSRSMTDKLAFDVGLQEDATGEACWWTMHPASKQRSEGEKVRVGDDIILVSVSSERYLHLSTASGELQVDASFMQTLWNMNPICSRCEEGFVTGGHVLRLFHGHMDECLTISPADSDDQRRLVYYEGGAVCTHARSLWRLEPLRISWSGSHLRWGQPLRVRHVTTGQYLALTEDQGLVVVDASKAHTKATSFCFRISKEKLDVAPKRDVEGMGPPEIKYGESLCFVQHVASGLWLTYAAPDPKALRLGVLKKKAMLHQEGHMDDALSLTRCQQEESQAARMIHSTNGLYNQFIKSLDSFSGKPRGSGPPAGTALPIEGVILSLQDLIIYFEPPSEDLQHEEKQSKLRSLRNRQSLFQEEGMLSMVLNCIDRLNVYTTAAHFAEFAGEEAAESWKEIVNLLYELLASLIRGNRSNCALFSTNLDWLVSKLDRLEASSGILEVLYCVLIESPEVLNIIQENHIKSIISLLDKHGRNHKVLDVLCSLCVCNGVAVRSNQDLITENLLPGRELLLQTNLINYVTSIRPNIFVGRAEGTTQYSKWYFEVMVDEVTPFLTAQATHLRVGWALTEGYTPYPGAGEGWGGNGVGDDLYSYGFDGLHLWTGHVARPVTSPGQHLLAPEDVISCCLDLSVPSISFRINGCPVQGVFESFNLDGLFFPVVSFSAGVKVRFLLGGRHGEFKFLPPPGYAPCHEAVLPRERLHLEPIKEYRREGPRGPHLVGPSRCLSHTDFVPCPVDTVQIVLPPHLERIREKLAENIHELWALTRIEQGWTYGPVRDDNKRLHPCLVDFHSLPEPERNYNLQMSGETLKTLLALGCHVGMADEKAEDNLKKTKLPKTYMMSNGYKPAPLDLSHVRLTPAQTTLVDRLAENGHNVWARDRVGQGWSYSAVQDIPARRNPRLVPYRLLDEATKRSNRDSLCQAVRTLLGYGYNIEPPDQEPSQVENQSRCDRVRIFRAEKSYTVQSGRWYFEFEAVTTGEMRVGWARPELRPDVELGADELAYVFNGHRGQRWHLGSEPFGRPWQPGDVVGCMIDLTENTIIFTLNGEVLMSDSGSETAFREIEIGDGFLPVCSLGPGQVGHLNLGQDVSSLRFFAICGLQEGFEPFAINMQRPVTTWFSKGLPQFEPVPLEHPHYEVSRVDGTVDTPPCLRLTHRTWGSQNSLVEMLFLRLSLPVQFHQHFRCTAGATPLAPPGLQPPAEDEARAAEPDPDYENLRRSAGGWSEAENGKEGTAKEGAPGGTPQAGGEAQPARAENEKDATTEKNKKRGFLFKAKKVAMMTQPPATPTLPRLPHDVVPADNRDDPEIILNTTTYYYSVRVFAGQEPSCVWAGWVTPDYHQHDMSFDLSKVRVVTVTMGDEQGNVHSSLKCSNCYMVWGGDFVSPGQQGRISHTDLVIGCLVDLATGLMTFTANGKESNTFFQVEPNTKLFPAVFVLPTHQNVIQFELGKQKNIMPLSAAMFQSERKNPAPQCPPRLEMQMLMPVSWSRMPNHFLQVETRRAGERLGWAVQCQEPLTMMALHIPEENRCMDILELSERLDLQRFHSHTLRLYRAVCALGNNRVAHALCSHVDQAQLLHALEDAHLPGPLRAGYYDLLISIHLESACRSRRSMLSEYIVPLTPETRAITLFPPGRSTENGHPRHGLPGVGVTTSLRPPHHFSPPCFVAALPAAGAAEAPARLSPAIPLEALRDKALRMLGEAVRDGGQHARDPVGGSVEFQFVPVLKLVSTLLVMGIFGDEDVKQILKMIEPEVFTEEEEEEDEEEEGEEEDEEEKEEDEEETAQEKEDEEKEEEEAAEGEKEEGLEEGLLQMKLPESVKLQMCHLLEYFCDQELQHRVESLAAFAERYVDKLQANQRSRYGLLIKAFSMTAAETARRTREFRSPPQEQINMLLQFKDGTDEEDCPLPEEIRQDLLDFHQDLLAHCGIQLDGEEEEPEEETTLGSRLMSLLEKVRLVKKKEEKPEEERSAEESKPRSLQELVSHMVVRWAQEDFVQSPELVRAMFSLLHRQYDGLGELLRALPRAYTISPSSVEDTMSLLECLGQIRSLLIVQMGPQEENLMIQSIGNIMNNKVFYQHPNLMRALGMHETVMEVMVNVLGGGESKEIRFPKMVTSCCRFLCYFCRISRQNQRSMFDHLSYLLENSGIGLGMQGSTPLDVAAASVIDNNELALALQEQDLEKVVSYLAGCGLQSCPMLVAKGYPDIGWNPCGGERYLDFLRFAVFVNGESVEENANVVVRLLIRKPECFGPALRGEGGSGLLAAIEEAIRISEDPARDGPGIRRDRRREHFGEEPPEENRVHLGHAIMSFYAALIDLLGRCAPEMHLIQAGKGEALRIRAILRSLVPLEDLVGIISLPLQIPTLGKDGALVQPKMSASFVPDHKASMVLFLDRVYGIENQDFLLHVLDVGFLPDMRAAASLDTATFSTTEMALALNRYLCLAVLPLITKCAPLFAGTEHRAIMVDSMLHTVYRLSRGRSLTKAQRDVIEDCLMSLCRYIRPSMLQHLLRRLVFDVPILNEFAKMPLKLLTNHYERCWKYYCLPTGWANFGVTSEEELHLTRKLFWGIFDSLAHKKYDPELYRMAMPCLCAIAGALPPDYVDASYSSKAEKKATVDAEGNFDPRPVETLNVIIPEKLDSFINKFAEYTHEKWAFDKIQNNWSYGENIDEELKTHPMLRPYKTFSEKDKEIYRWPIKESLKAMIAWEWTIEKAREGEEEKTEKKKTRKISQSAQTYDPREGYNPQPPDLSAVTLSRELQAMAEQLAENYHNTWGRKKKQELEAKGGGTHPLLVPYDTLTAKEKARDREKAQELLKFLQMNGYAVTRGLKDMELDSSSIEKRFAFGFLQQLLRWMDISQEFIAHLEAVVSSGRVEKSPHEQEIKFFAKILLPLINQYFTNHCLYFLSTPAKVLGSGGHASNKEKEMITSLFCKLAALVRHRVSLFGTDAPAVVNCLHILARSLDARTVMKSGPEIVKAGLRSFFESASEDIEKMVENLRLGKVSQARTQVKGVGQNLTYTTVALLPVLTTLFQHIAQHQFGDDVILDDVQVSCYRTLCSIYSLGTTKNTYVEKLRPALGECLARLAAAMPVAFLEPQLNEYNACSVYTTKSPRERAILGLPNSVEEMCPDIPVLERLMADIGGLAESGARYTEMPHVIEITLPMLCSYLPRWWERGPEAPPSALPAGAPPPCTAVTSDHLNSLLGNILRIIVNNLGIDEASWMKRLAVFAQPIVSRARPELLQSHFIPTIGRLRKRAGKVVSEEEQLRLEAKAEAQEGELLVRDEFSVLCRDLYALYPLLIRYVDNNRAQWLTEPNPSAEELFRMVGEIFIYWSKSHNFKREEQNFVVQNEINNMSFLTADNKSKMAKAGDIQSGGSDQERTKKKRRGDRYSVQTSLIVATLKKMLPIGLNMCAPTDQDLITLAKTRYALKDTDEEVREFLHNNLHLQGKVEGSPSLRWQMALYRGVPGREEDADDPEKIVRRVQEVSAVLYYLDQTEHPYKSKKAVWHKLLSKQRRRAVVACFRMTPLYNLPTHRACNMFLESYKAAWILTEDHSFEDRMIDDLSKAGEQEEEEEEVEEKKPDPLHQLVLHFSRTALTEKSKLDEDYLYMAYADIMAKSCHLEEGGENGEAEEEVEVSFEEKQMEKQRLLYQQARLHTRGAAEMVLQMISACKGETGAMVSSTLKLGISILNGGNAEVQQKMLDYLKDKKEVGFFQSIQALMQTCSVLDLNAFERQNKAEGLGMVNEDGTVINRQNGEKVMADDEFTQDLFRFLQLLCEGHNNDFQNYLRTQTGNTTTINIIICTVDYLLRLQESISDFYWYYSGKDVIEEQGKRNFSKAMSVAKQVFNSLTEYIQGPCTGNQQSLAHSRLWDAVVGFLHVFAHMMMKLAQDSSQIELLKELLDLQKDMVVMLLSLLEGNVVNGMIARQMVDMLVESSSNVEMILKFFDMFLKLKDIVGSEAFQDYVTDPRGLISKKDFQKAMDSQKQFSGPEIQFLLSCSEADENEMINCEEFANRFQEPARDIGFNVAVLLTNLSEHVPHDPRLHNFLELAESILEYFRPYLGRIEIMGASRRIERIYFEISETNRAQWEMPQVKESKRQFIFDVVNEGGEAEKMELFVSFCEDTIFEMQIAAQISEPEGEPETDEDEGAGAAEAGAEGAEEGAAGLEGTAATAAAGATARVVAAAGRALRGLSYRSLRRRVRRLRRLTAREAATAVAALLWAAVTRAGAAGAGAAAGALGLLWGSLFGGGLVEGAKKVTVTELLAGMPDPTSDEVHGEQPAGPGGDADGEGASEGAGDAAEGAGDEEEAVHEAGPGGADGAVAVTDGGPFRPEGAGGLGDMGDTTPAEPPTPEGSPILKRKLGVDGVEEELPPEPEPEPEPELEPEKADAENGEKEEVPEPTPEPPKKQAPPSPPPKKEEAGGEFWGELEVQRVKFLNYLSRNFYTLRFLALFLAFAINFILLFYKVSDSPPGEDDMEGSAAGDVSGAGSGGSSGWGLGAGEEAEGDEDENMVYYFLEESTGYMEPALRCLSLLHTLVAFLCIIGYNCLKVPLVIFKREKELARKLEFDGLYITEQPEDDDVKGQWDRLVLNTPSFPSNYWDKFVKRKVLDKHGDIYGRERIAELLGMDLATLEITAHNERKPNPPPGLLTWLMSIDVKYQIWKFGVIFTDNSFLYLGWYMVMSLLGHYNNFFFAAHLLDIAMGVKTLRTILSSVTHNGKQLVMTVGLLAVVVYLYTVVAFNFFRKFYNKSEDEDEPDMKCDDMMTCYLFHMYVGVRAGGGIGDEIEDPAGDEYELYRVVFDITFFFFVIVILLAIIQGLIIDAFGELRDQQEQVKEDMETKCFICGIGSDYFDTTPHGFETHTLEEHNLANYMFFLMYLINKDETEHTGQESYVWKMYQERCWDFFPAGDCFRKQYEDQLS
# UniProt Q9HCY8: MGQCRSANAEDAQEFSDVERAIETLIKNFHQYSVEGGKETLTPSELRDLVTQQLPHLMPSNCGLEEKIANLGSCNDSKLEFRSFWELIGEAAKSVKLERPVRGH
# Legend:
# Assay in all cases: log2 fold change, soluble protein after heating vs DMSO (PISA); higher = thermal stabilisation; K562 lysate, 10 uM; active = over 0.2 and 3.5 SD of the protein, either way, in both replicates (recomputed)
# [1] = compound: CC1=C2C(=CC=C1)N=C(N(C2=O)C3=CC=CC=C3C)CN4C=NC5=C(N=CN=C54)N
# In short: (§1)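 The values are log-two fold changes in thermal stability compared with solvent controls and come from duplicates. They were obtained by TMTpro 16plex LC-MS/MS, with channel sums equalised, on the supernatant after 21,000xg for 90 min. That supernatant came from crude K562 extract at 1 mg/mL protein treated with 10 μM compound for 30 min, heated for 3 min across 48°C-58°C, pooled and brought to 0.5% NP-40 at 4°C.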
# [2] = compound: Cc1sc2c(c1C)C(c1ccc(Cl)cc1)=N[C@@H](CC(=O)OC(C)(C)C)c1nnc(C)n1-2
# In short: as §1
# [3] = compound: c1ccc([C@@H]2C[C@H]2NC2CCNCC2)cc1
# In short: as §1
# [4] = compound: C1=CC=C(C=C1)[C@H](COC2=CC3=C(C=C2)NC(=O)N3)NC(=O)C4=CC=CN(C4=O)CC5=CC(=C(C=C5)F)F
# In short: as §1
# [5] = compound: CC1=C(SC2=C1C(=N[C@H](C3=NN=C(N32)C)CC(=O)N)C4=CC=C(C=C4)Cl)C
# In short: as §1
Target,log2 fold change [1],log2 fold change [2],log2 fold change [3],log2 fold change [4],log2 fold change [5]
RPS19 (UniProt M0R2L9),inactive: 0.377,inactive: 0.27,–,–,–
RPS3 (UniProt E9PJN9),inactive: 0.214,–,–,–,–
RPUSD1 (UniProt Q9UJJ7),inactive: 0.024,inactive: -0.061,inactive: -0.152,–,–
RYR1 (UniProt P21817),–,inactive: -0.093,inactive: -0.055,inactive: -0.011,inactive: -0.028
S100A14 (UniProt Q9HCY8),–,inactive: 0,–,inactive: -0.209,inactive: -0.086

# From the supplement of paper PMC10849652
